Measured values as given in PubChem BioAssay AID528 (NMMLSC, 2006).
Among all 24,000 compounds or so, fewer than 10 were called active. Inconclusive results, whose numbers are uncertain, are shown with a selection of clear calls.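 How the source made its calls: active means fluorescent ligand binding to cells raised by more than 40% of the manganese-induced maximum; inconclusive means compound's own fluorescence above 85% of the ligand control signal; inactive means the rest.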

Sequences of proteins named here, by UniProt entry; tags and fusion partners are left off.
UniProt P13612, whole entry, looked up: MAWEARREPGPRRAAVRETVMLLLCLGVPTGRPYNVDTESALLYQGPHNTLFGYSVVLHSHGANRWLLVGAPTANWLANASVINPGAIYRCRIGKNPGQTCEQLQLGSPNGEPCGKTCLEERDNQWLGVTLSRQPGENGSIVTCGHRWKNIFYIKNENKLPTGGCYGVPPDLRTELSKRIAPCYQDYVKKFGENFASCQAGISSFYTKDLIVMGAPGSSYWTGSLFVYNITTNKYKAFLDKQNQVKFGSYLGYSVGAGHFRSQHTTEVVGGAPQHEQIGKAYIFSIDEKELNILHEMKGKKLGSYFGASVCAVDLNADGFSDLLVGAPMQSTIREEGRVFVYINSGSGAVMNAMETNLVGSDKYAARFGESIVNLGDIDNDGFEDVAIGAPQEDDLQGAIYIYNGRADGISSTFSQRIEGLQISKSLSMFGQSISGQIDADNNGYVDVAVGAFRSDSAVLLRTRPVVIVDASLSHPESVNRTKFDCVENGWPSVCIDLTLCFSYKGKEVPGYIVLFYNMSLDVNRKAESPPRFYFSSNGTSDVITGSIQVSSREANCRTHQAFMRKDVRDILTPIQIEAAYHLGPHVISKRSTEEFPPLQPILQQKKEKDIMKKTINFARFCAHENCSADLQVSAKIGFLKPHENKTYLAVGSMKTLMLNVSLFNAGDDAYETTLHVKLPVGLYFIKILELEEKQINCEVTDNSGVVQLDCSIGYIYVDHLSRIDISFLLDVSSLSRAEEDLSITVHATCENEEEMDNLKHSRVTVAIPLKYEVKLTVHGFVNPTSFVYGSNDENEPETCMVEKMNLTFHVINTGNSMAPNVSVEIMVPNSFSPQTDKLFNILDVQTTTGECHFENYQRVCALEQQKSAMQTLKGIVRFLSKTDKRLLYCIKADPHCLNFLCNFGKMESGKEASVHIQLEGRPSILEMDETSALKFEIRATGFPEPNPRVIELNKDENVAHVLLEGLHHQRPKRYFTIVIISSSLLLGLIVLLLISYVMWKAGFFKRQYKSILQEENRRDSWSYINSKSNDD

The molecules below were run against Integrin alpha-4 (Homo sapiens) (UniProt P13612) (assay: enhancers of LDV-FITC binding to VLA-4 integrin, primary screen, Jurkat cells, flow cytometry (AID 528;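 on activation: 0% = ligand binding without compound and 100% = manganese-stimulated maximal binding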)). Details: active compounds read high, screened at 10 µM (by protocol).

| SMILES | activation |
| --- | --- |
| CC1CC(C)CN(CCCNC(=O)CC2Oc3ccccc3NC2=O)C1 (stereo not drawn) | inconclusive |
| COC(=O)c1ccc(C(=O)OC)c(NC(=O)c2ocnc2C)c1 | inactive: 6.9% |
| CCc1[nH]nc2c1C(c1ccncc1)C(C#N)=C(N)O2 (stereo not drawn) | inconclusive |
| O=C(NCCC1=CCCCC1)C1CCCN(S(=O)(=O)c2cccc3cccnc23)C1 (stereo not drawn) | inconclusive |
| CC(=O)N1CCC2(CC1)CC(=O)c1cc(OCC(=O)NCc3ccco3)ccc1O2 | inconclusive |
| CCN(c1ccccc1)c1cc(C)nc2nc(C)nn12 | inconclusive |
| Cc1ccc(C2c3sc(=O)[nH]c3SC3C(=O)NC(=O)C32)cc1 (stereo not drawn) | inactive: 6% |
| Cc1c2c(n3c(nc4ccccc43)c1C#N)N(Cc1cccnc1)CC2 | inconclusive |
| CCCCN(CC)CCCNC(=O)c1cc2cc3ccc(OC)cc3nc2o1 | inconclusive |
| O=C(CSc1nc(-c2ccccc2)cs1)NCc1ccco1 | inconclusive |
| O=C(NCC1CCCO1)c1ccc(CS(=O)(=O)Cc2ccc(F)cc2)o1 (stereo not drawn) | inactive: 10% |
| CCCC1c2ccc(C)n2CCN1C(=O)Nc1ccccc1Cl (stereo not drawn) | inconclusive |
| OC(Cn1cccn1)c1ccccc1 (stereo not drawn) | inactive: 0% |
| CC(=O)Nc1ccc(S(=O)(=O)/N=C2\SCCN2S(=O)(=O)c2ccc(NC(C)=O)cc2)cc1 | inactive: 5% |
| c1ccc(N2CCOCC2)c(Nc2nc3ccccc3n3cnnc23)c1 | inconclusive |
| CCOC(=O)c1c(NC(=O)Cn2c(=O)oc3ccccc32)oc(C)c1C(C)=O | inconclusive |
| Cn1c(Cn2c(=O)sc3ccccc32)nnc1SCC(=O)NCc1ccc(F)cc1 | inconclusive |
| CC(C)C(NS(=O)(=O)c1ccc2c(c1)oc(=O)n2C)C(=O)N1CCN(c2ccccc2F)CC1 (stereo not drawn) | inconclusive |
| COc1ccccc1CNC(=O)c1cc2c(=O)n(C)c3ccccc3c2n1C | inactive: 7% |
| CC1CCC(NS(=O)(=O)c2ccc3c(c2)n(C)c(=O)c(=O)n3C)CC1 (stereo not drawn) | inactive: 6% |
| O=C(NC1CCCCC1)c1noc2c1CCCCC2 | inactive: -2% |

Quoted from the listing for reference:

| SMILES | activation |
| --- | --- |
| CC(=O)Nc1ccc(S(=O)(=O)/N=C2\SCCN2S(=O)(=O)c2ccc(NC(C)=O)cc2)cc1 | inactive: 5% |
| c1ccc(N2CCOCC2)c(Nc2nc3ccccc3n3cnnc23)c1 | inconclusive |
| CCOC(=O)c1c(NC(=O)Cn2c(=O)oc3ccccc32)oc(C)c1C(C)=O | inconclusive |

Continued:

| SMILES | activation |
| --- | --- |
| Cc1ccc2c(c1)NC(=O)C(CC(=O)N(C)Cc1ccccc1)O2 (stereo not drawn) | inconclusive |
| Cn1c(=O)oc2cc(S(=O)(=O)N3CCCc4ccccc43)ccc21 | inconclusive |
| COc1cccc(-c2nc(CS(=O)CC(=O)NCc3ccccc3Cl)c(C)o2)c1 (stereo not drawn) | inconclusive |
| CC(O)C(=O)NCCOCCOCCNC(=O)C(C)O (stereo not drawn) | inactive: 1% |
| CC1(C)Cc2c(C#N)c(NC3CCCCC3)nc(-c3ccco3)c2CO1 | inconclusive |
| COc1ccc(N2CSC3=C(C#N)C(c4ccc(OC)c(OC)c4)CC(=O)N3C2)c(OC)c1 (stereo not drawn) | inconclusive |
| CCc1cccc(OCC(=O)Nc2ccc(S(=O)(=O)Nc3onc(C)c3C)cc2)c1 | inactive: 1% |
| CSC1=NCCN1C(=O)c1c(F)cccc1F | inconclusive |
| CCN(C(=O)CCc1nc(-c2ccccc2F)no1)c1cc(OC)ccc1OC | inactive: -2% |
| CCN1CCCC1CNC(=O)Cn1cnc2sc(C)c(S(=O)(=O)N3CCC(C)CC3)c2c1=O (stereo not drawn) | inactive: 5% |
| COCCn1c(SCC(=O)Nc2nnc(C)s2)nnc1-c1c[nH]c2ccccc12 | inconclusive |
| CCOC(=O)CSC1=Nc2ccccc2C2=NC(CC(=O)NCc3ccccc3)C(=O)N12 (stereo not drawn) | inconclusive |
| O=C(OCCN1C(=O)c2ccccc2C1=O)c1ccc(S(=O)(=O)N2CCCCCC2)cc1 | inconclusive |
| CC(=O)Nc1nonc1-c1nc2ccccc2n1Cc1ccccn1 | inconclusive |
| CCCNC(=O)CS(=O)Cc1nc(-c2cccc(OC)c2)oc1C (stereo not drawn) | inconclusive |
| CCOC(=O)Cn1nnnc1C(C(C)C)N(Cc1cc2c(C)cc(C)cc2[nH]c1=O)C1CCCC1 (stereo not drawn) | inconclusive |
| O=C(Nc1c(C(=O)N2CCOCC2)cnn1-c1ccccc1)c1ccco1 | inconclusive |
| CCOC(=O)C(CC)Sc1nc(-c2ccc(OC)cc2)nc2c1c(=O)n(C)c(=O)n2C (stereo not drawn) | inactive: -6% |
| O=S(=O)(Nc1ccc2c(c1)OCCO2)c1cnc[nH]1 | inactive: -1% |
| C=CCn1c(-c2ccccc2)c[nH]c1=S | inconclusive |
| CC1CCc2c(C(=O)NCCCN3CCOCC3)csc2C1 (stereo not drawn) | inconclusive |

| SMILES | activation |
| --- | --- |
| COc1ccc(-c2cc(-c3ccc(F)cc3)nc(N3CCN(C)CC3)n2)cc1 | inactive: 3% |
| COc1cc(C(=O)NCCc2nc3ccccc3n2C)cc(OC)c1OC | inconclusive |
| COCCCNC(=O)CSC1=Nc2ccccc2C2=NC(CC(=O)NCc3ccccc3)C(=O)N12 (stereo not drawn) | inconclusive |
| Cc1ccc(-c2nc(CS(=O)(=O)CC(=O)NCCCN3CCN(C)CC3)c(C)o2)cc1 | inconclusive |
| CCOC(=O)c1oc2ccccc2c1NC(=O)c1cccc(OC)c1OC | inactive: 3.7% |
| O=C(O)c1ccc(Cl)c2c1C1C=CCC1C(c1ccccn1)N2 (stereo not drawn) | inconclusive |
| Cn1c(=O)oc2cc(S(=O)(=O)NCCC(=O)NC3CCCC3)ccc21 | inconclusive |
| COc1cccc(Cn2nnc(C(=O)Nc3cc(C)ccc3OC)c2N)c1 | inconclusive |
| Cc1ccc(C)c(N2CCN(C(=O)CN(C)S(=O)(=O)c3cnc[nH]3)CC2)c1 | inactive: 1% |
| CC(=O)NCc1ccc(C(=O)CSc2nnc(-c3ccncc3)n2Cc2ccccc2)o1 | inactive: 4.5% |
| COc1cc(NC(=O)c2cc(C)on2)cc(OC)c1OC | inactive: 3% |
| CC(C(=O)NCc1cccs1)n1cccc1 (stereo not drawn) | inconclusive |
| Cc1noc(C(=O)N2CC3(C)CC2CC(C)(C)C3)c1Cl (stereo not drawn) | inactive: -1% |
| COC(=O)Cn1cnc2sc(C)c(S(=O)(=O)N3CCN(c4ccccc4OC)CC3)c2c1=O | inconclusive |
| CCOC(=O)CNc1c(-c2ccc(F)cc2)nc2cnccn12 | inconclusive |
| COc1ccccc1C(=O)N1CCN=C1SC | inconclusive |
| Cc1ccc(S(=O)(=O)N(CC(=O)O)Cc2ccccc2)cc1 | inconclusive |
| Cc1ccnc(N2C(=O)c3ccccc3C2Nc2ccc3c(c2)OCCO3)c1 (stereo not drawn) | inactive: -5% |
| Cc1cccc(-c2nsc(SCC(=O)N3CCCC3)n2)c1 | inactive: -9% |
| O=C(c1cc2ccccc2o1)N1CCN=C1SCc1cccnc1 | inconclusive |
| CNC(=O)N(C1=NCC(C)(C)S1)c1ccc(F)c(Cl)c1 | inactive: 0% |
